Source: PubChem BioAssay AID248 (DTP/NCI, 2004)
The list shows only some results of the screen, not a fair sample: it is rich in T/C values a quarter to a half above the control, in often repeated tests (any T/C) and in doses without a T/C. Further doses and runs are listed elsewhere. T/C: endpoint of the treated group in % of that of the vehicle group. Some entries give survivors of the animals treated and no T/C: the source holds a T/C of zero for them, seemingly a mark for toxic or unscored doses. Some survivor counts are full or nearly so, which does not show that the dose was tolerated: survival well below the control is almost never listed, so the zero probably covers shortened survival too. Counts of survivors are from the toxicity check (mostly the fifth day) where no day follows; animals may have died later. Schedule codes are those of the source, read here as Q, the interval in days (D) or hours (H), X, the number of doses. Some schedule codes hold Z or #, which are not explained here. Some entries hold several experiments; the results are listed from low to high. Where survival is the endpoint, the PubChem record calls one and a half times the control and up active, and a quarter to a half above the control has no call in these data; cut-offs in other NCI protocols can differ.

Tested on: L1210 leukemia ip in BDF1 mice, survival T/C
Assay: NCI In Vivo Anticancer Drug Screen. Data for tumor model L1210 Leukemia (intraperitoneal) in B6D2F1 (BDF1) mice
Settings: T/C endpoint: mean survival time, higher T/C = longer survival
[1] = dose: 200.0 mg/kg/injection, schedule: Q01DX009 (ip), vehicle: saline
[2] = dose: 400.0 mg/kg/injection, schedule: Q04DX003 (ip), vehicle: saline
[3] = dose: 400.0 mg/kg/injection, schedule: Q01DX001 (ip), vehicle: saline
[4] = dose: 100.0 mg/kg/injection, schedule: Q01DX009 (ip), vehicle: Klucel (hydroxypropylcellulose) (HPC)
[5] = dose: 200.0 mg/kg/injection, schedule: Q01DX009 (ip), vehicle: Klucel (hydroxypropylcellulose) (HPC)
[6] = dose: 400.0 mg/kg/injection, schedule: Q01DX009 (ip), vehicle: Klucel (hydroxypropylcellulose) (HPC)
[7] = dose: 200.0 mg/kg/injection, schedule: Q01DX001 (ip), vehicle: saline
[8] = dose: 200.0 mg/kg/injection, schedule: Q01DX009 (ip), vehicle: saline with Tween-80
[9] = dose: 400.0 mg/kg/injection, schedule: Q04DX003 (ip), vehicle: saline with Tween-80
[10] = dose: 400.0 mg/kg/injection, schedule: Q04DX003 (ip), vehicle: Klucel (hydroxypropylcellulose) (HPC)
[11] = dose: 200.0 mg/kg/injection, schedule: Q04DX003 (ip), vehicle: saline
[12] = dose: 200.0 mg/kg/injection, schedule: Q04DX003 (ip), vehicle: saline with Tween-80

O=C(Nc1cccc(C2=NCCN2)c1)Nc1cc(C(=O)Nc2ccc(C3=NCCN3)cc2)ccc1C(=O)Nc1ccc(C2=NCCN2)cc1
survivor count (dose: 15.0 mg/kg/injection, schedule: Q01DX Z (ip), vehicle: saline): 0 of 6 | survivor count (dose: 30.0 mg/kg/injection, schedule: Q01DX Z (ip), vehicle: saline): 0 of 6 | survivor count (dose: 60.0 mg/kg/injection, schedule: Q01DX Z (ip), vehicle: saline): 0 of 6 | survivor count (dose: 120.0 mg/kg/injection, schedule: Q01DX Z (ip), vehicle: saline): 0 of 6 | survivor count (dose: 500.0 mg/kg/injection, schedule: Q01DX010 (oral), vehicle: saline): 2 of 6

O=C(/C=C/c1cccc(Cl)c1)c1ccc(Cl)cc1
T/C (dose: 100.0 mg/kg/injection, schedule: Q04DX003 (ip), vehicle: carboxymethylcellulose (CMC)): 87, 92, 94, 103 % of control | survivor count (dose: 200.0 mg/kg/injection, schedule: Q04DX003 (ip), vehicle: carboxymethylcellulose (CMC)): 3 of 3 | survivor count (dose: 400.0 mg/kg/injection, schedule: Q01DX009 (ip), vehicle: carboxymethylcellulose (CMC)): 6 of 6 | survivor count (dose: 400.0 mg/kg/injection, schedule: Q04DX003 (ip), vehicle: carboxymethylcellulose (CMC)): 3 of 3

CSC(N)=Nc1cccc(C)c1C
survivor count [1]: 2 of 6 | survivor count [2]: 1 of 6

O=C/C=C/c1cccc([N+](=O)[O-])c1
survivor count [3]: 1 of 4

OC(c1ccccc1)(c1ccccc1)C(F)(F)C(F)(F)C(F)(F)F
survivor count (dose: 500.0 mg/kg/injection, schedule: Q01DX Z (ip), vehicle: methylcellulose (MC)): 6 of 6

Cc1ccc(C)c(NC(=O)Oc2ccc(Br)cc2Br)c1
T/C [4]: 92, 95, 111 % of control | survivor count [4]: 6 of 6 | survivor count [5]: 6 of 6 | survivor count [6]: 1 of 6, 5 of 6, 6 of 6

CCCCN(CCCC)CC(O)c1ccnc2cc3c(cc12)OCO3 (centres undefined)
survivor count [7]: 3 of 6 | survivor count [3]: 1 of 6

ClCCn1c(CCl)nc2ccccc21
survivor count (dose: 100.0 mg/kg/injection, schedule: Q01DX009 (ip), vehicle: saline): 0 of 6 | survivor count [1]: 0 of 6 | survivor count (dose: 400.0 mg/kg/injection, schedule: Q01DX009 (ip), vehicle: saline): 0 of 6

NC(=O)NC(CCl)NC(N)=O
survivor count (dose: 100.0 mg/kg/injection, schedule: Q01DX009 (ip), vehicle: acetone): 2 of 6 | survivor count (dose: 200.0 mg/kg/injection, schedule: Q01DX001 (ip), vehicle: acetone): 0 of 6 | survivor count (dose: 400.0 mg/kg/injection, schedule: Q01DX001 (ip), vehicle: acetone): 0 of 6

O=CO.[Tl]
survivor count (dose: 100.0 mg/kg/injection, schedule: Q01DX001 (ip), vehicle: saline): 0 of 6 | survivor count [7]: 0 of 6 | survivor count [3]: 0 of 6

CCCC(C)CN (centres undefined)
survivor count [8]: 2 of 6 | survivor count [9]: 0 of 6

O=S(=O)(OCC#CCOS(=O)(=O)c1cccs1)c1cccs1
survivor count (dose: 50.0 mg/kg/injection, schedule: Q01DX009 (ip), vehicle: Klucel (hydroxypropylcellulose) (HPC)): 4 of 6 | survivor count [4]: 0 of 6 | survivor count [5]: 1 of 6 | survivor count [10]: 6 of 6

COc1ccc(CNCC(=O)OCc2ccccc2)cc1
survivor count [8]: 4 of 6 | survivor count [9]: 3 of 6

COCCN=C(NCCOC)c1ccc(Nc2ncnc3nc[nH]c23)cc1
survivor count [11]: 0 of 6

c1ccc2c(CN3CCCCC3)c[nH]c2c1
survivor count [8]: 0 of 6 | survivor count [9]: 4 of 6

CC(C)C[n+]1cc([O-])on1
survivor count (dose: 25.0 mg/kg/injection, schedule: Q01DX009 (ip), vehicle: Klucel (hydroxypropylcellulose) (HPC)): 0 of 6 | survivor count [4]: 0 of 6 | survivor count [5]: 0 of 6 | survivor count [6]: 0 of 6

CCN(CC)C(=S)[S][Sn]([Cl])([c]1ccccc1)[c]1ccccc1
survivor count (dose: 100.0 mg/kg/injection, schedule: Q01DX001 (ip), vehicle: other): 2 of 6 | survivor count (dose: 200.0 mg/kg/injection, schedule: Q01DX001 (ip), vehicle: other): 0 of 6 | survivor count (dose: 400.0 mg/kg/injection, schedule: Q01DX001 (ip), vehicle: other): 0 of 6

CC(=N\NC(N)=S)/C(=N/NC(N)=S)c1ccccc1
survivor count (dose: 240.0 mg/kg/injection, schedule: Q01DX Z (ip), vehicle: carboxymethylcellulose (CMC)): 5 of 6

CCOC(=O)NCC(C)(CCN1CCCC1)c1cccc2ccccc12 (centres undefined)
survivor count (dose: 50.0 mg/kg/injection, schedule: Q01DX009 (ip), vehicle: saline with Tween-80): 6 of 6 | survivor count (dose: 100.0 mg/kg/injection, schedule: Q04DX003 (ip), vehicle: Klucel (hydroxypropylcellulose) (HPC)): 6 of 6 | survivor count (dose: 200.0 mg/kg/injection, schedule: Q04DX003 (ip), vehicle: Klucel (hydroxypropylcellulose) (HPC)): 2 of 6 | survivor count [10]: 0 of 6

CCCCCCCCN(C)/N=N/c1nc[nH]c1C(N)=O
T/C [5]: 131 % of control | T/C [6]: 144 % of control

O=[N+]([O-])c1ccc([N+](=O)[O-])c(Cl)c1
survivor count [5]: 6 of 6 | survivor count [9]: 6 of 6

Nc1ccc2c(c1)C(=NO)c1cc(N)ccc1-2
survivor count (dose: 400.0 mg/kg/injection, schedule: Q01DX001 (ip), vehicle: carboxymethylcellulose (CMC)): 2 of 4

Cc1cc[n+]([O-])cc1C
survivor count [6]: 2 of 3 | survivor count (dose: 400.0 mg/kg/injection, schedule: Q04DX002 (ip), vehicle: Klucel (hydroxypropylcellulose) (HPC)): 3 of 3

C[N+]1(C)CCCC1
survivor count (dose: 100.0 mg/kg/injection, schedule: Q04DX003 (ip), vehicle: saline): 0 of 6 | survivor count [11]: 0 of 6 | survivor count [2]: 0 of 6

CCSC(SCC)C(OC(C)=O)C(OC(C)=O)C(OC(C)=O)C(CNC(C)=O)OC(C)=O (centres undefined)
survivor count [12]: 6 of 6 | survivor count [9]: 6 of 6

CNC(Cc1ccccc1)c1ccco1 (centres undefined)
survivor count (dose: 400.0 mg/kg/injection, schedule: Q04DX002 (ip), vehicle: saline with Tween-80): 0 of 3

CC(=O)N(C(C)C)C(C)C
survivor count (dose: 6.25 mg/kg/injection, schedule: Q01DX001 (ip), vehicle: saline with Tween-80): 0 of 6 | survivor count (dose: 12.5 mg/kg/injection, schedule: Q01DX001 (ip), vehicle: saline with Tween-80): 0 of 6 | survivor count (dose: 25.0 mg/kg/injection, schedule: Q01DX001 (ip), vehicle: saline with Tween-80): 1 of 6 | survivor count (dose: 50.0 mg/kg/injection, schedule: Q01DX001 (ip), vehicle: saline with Tween-80): 0 of 6 | survivor count (dose: 100.0 mg/kg/injection, schedule: Q01DX001 (ip), vehicle: saline with Tween-80): 0 of 6 | survivor count (dose: 200.0 mg/kg/injection, schedule: Q01DX001 (ip), vehicle: saline with Tween-80): 0 of 6 | survivor count (dose: 400.0 mg/kg/injection, schedule: Q01DX001 (ip), vehicle: saline with Tween-80): 0 of 6

CCC(C)C(CN)(CCCCN1CCCC1)c1cccc2ccccc12 (centres undefined)
survivor count [12]: 5 of 6 | survivor count [9]: 0 of 6

CN(C)Cc1ccnc(Cl)n1
survivor count (dose: 4.0 mg/kg/injection, schedule: Q01DX Z (ip), vehicle: methylcellulose (MC)): 0 of 6 | survivor count (dose: 8.0 mg/kg/injection, schedule: Q01DX Z (ip), vehicle: methylcellulose (MC)): 0 of 6 | survivor count (dose: 16.0 mg/kg/injection, schedule: Q01DX Z (ip), vehicle: methylcellulose (MC)): 0 of 6 | survivor count (dose: 31.0 mg/kg/injection, schedule: Q01DX Z (ip), vehicle: methylcellulose (MC)): 0 of 6 | survivor count (dose: 62.0 mg/kg/injection, schedule: Q01DX Z (ip), vehicle: methylcellulose (MC)): 0 of 6 | survivor count (dose: 125.0 mg/kg/injection, schedule: Q01DX Z (ip), vehicle: methylcellulose (MC)): 0 of 6
